# ± gives the standard deviation of the averaged measurements. Only a part is listed here, and it is no random draw.
# Chains of the proteins cited; added tags and fusions are not shown. Lines headed by an entry give the natural chain unless they say otherwise; changes in a name come on top.
# UniProt Q14847: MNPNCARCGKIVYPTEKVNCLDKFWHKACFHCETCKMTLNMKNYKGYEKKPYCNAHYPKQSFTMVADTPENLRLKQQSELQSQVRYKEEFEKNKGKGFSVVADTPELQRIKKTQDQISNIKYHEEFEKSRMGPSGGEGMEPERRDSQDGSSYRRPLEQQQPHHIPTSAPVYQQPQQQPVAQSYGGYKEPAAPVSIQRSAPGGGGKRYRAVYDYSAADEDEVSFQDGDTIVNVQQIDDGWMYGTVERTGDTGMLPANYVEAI
# UniProt Q14166: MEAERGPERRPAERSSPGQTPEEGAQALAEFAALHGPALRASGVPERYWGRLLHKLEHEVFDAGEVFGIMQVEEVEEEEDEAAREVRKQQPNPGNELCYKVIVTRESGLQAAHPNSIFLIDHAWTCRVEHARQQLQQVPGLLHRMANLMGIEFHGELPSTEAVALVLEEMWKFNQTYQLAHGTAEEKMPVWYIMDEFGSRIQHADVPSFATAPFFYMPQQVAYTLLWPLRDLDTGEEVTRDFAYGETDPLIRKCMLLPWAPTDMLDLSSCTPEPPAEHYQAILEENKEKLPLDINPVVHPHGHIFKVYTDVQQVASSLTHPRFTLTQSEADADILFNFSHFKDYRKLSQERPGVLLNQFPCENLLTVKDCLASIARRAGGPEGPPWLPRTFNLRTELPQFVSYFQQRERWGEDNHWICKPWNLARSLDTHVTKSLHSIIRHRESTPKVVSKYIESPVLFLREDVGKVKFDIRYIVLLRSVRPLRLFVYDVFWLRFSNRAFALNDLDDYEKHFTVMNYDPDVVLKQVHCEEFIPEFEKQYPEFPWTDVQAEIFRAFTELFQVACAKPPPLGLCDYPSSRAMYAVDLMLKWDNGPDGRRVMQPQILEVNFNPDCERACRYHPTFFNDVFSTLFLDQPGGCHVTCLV
# UniProt Q12802: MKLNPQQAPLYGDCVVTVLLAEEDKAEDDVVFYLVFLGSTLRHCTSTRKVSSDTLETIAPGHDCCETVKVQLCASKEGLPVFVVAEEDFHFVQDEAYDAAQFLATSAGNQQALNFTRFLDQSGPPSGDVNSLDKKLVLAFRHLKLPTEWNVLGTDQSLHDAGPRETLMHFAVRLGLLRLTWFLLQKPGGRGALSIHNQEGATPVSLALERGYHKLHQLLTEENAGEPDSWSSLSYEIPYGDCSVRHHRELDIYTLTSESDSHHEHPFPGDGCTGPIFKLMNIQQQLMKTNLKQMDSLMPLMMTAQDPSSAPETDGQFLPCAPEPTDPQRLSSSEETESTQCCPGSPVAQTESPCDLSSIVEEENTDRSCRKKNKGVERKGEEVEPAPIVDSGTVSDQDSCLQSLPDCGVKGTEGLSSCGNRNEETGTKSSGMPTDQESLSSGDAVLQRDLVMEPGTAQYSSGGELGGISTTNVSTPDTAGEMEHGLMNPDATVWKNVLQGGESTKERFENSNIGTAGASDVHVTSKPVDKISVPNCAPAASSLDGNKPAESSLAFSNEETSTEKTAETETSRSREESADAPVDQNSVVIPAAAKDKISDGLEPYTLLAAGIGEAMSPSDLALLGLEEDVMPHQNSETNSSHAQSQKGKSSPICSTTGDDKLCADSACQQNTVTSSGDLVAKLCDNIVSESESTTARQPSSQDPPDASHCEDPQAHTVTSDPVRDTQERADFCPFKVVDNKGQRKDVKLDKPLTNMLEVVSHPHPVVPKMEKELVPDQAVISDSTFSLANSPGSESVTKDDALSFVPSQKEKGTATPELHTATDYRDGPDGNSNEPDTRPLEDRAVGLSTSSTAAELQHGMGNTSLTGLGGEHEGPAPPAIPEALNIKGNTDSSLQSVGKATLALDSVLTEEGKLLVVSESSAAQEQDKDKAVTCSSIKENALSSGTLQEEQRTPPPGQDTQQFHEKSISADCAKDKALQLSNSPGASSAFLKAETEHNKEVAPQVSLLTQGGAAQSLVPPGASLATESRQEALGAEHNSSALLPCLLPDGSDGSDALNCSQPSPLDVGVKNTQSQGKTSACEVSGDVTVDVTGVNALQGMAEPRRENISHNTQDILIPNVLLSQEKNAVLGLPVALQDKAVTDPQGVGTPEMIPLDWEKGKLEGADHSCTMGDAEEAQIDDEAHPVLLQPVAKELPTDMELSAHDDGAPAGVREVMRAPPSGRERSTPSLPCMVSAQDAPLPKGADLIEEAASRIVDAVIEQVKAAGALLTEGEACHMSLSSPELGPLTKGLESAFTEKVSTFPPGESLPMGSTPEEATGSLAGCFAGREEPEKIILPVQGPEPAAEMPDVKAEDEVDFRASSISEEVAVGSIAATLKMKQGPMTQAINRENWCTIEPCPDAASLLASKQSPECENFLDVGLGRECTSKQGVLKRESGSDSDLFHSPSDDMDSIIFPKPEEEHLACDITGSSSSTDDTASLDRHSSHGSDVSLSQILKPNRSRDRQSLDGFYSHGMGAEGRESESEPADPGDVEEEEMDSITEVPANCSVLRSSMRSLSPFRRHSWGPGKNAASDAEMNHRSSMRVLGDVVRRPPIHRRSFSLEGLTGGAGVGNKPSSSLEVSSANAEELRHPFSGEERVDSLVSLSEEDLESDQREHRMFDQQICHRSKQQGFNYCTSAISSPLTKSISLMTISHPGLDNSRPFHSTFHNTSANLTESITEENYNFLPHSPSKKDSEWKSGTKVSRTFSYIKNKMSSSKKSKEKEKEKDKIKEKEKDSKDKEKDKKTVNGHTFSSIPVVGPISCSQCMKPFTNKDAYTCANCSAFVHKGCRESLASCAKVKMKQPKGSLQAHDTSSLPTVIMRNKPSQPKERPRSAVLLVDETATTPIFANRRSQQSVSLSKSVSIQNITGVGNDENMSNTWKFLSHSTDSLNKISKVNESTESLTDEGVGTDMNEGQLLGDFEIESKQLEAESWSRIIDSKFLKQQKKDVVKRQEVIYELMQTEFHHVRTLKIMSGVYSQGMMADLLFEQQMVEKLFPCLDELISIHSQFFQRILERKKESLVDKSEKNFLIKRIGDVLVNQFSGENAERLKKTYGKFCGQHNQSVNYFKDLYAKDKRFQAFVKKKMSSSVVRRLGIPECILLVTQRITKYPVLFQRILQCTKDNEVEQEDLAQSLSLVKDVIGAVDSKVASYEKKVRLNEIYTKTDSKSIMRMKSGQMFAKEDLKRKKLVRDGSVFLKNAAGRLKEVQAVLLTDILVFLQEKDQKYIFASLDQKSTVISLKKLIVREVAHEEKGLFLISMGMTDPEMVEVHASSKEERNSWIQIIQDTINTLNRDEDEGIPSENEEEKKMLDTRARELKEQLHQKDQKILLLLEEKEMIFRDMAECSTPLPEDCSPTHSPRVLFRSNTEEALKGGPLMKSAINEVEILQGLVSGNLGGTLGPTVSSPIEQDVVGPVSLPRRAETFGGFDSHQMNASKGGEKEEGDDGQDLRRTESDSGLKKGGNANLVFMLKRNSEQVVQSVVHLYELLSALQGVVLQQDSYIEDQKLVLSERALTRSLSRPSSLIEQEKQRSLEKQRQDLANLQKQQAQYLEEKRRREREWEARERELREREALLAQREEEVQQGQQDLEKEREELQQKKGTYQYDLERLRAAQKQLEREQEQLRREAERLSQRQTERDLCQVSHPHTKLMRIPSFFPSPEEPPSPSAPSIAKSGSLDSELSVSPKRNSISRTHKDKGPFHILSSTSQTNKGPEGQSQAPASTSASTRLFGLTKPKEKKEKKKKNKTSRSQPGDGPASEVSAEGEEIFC
# UniProt Q12765: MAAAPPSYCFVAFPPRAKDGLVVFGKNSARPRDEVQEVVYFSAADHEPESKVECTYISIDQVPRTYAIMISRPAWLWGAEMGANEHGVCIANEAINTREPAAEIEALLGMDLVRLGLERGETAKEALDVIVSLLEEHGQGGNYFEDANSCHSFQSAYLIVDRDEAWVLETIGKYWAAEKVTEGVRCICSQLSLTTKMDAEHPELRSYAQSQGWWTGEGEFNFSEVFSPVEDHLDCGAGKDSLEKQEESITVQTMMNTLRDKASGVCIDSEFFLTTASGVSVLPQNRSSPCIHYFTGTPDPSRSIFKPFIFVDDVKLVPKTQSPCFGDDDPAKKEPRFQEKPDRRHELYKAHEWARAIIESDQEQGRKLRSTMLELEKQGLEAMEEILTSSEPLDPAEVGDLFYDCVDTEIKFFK
# UniProt Q13422: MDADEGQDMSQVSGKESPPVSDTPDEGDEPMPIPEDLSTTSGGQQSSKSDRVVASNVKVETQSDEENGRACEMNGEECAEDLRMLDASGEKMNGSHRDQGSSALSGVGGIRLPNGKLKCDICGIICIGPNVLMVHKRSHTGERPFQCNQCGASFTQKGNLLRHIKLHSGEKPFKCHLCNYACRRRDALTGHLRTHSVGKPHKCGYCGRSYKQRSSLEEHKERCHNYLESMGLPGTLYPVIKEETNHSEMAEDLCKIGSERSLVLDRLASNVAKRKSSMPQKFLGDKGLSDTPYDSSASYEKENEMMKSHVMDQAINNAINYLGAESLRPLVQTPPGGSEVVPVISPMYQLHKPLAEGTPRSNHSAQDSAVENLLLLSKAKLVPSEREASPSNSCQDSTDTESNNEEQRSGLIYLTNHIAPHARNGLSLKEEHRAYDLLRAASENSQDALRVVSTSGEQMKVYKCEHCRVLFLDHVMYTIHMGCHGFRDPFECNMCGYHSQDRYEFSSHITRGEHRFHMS
# UniProt Q13616, whole entry: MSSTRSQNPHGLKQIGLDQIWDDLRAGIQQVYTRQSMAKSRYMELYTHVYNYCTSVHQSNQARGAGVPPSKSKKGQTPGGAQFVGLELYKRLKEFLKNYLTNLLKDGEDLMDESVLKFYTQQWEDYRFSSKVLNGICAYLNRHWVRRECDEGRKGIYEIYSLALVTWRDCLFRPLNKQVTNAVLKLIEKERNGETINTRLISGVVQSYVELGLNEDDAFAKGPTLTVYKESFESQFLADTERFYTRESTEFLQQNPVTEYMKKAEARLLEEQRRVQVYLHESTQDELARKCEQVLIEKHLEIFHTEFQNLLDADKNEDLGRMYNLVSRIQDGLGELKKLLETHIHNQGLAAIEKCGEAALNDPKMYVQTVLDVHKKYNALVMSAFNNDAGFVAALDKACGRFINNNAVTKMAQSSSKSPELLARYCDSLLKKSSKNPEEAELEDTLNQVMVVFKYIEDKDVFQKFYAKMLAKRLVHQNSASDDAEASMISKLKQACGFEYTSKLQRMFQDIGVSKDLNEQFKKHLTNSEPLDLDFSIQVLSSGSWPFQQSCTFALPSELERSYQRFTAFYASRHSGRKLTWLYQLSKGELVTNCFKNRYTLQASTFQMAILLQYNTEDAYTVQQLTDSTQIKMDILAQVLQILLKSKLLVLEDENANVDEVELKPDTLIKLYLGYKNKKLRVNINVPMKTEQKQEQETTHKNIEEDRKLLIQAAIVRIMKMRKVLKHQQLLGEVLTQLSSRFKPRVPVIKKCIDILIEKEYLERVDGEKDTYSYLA
# UniProt Q12788: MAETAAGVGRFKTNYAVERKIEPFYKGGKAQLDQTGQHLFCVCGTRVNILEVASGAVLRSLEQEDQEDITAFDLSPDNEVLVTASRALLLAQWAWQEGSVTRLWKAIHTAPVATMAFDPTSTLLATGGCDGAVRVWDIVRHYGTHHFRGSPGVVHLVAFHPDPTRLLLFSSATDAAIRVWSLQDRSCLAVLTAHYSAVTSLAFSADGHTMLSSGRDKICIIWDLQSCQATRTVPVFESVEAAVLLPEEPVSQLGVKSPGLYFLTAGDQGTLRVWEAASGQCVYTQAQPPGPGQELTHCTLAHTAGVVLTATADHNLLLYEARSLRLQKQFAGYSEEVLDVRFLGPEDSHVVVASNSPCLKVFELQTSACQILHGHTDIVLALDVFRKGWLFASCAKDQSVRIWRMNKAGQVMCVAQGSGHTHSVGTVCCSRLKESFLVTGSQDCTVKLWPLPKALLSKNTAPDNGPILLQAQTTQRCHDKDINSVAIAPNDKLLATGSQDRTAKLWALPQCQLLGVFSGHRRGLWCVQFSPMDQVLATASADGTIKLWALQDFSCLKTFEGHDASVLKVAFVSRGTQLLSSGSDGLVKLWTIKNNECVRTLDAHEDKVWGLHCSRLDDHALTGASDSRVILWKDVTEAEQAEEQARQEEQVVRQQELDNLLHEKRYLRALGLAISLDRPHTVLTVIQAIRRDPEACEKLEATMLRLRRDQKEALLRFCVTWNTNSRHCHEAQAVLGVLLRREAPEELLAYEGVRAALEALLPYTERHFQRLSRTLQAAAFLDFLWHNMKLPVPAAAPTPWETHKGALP
# UniProt Q14257: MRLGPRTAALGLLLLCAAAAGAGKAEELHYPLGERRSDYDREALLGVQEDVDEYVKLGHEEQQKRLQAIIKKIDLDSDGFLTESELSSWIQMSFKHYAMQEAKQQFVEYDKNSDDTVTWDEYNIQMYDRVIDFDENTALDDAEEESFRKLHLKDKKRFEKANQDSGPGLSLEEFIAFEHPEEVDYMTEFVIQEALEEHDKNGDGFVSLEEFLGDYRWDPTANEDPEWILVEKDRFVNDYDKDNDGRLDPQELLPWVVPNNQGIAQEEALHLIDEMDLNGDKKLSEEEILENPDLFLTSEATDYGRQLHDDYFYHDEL
# Compound: Nc1ncnc2c1ncn2[C@@H]1O[C@H](COP(=O)(O)OP(=O)(O)NP(=O)(O)O)[C@@H](O)[C@H]1O [adenylyl imidodiphosphate]
# Experiment: NP40-soluble protein abundance relative to vehicle (solubility fold change) (ratio); higher = more soluble protein in presence of AMP-PNP
# How it was run: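 Crude Jurkat lysate, prepared by Dounce homogenisation, was exposed to eight concentrations from 0.1 to 10 mM for 10 min at room temperature and then 3 min at 37 °C. Solubilisation used 0.8% NP40 with benzonase for 60 min at 4 °C, followed by ultracentrifugation and TMT labelling of the supernatant for LC-MS/MS. After vsn normalisation of intensities, each value is the fold change against the detergent-processed vehicle within each replicate, across three independent experiments.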
Target,NP40-soluble protein abundance (concentration: 1mM),NP40-soluble protein abundance (concentration: 2mM),NP40-soluble protein abundance (concentration: 4mM),NP40-soluble protein abundance (concentration: 6mM),NP40-soluble protein abundance (concentration: 8mM),NP40-soluble protein abundance (concentration: 10mM)
WDR43 (UniProt Q15061),1 ± 0.011,1.016 ± 0.0073,1.051 ± 0.0072,1.05 ± 0.0082,1.0448 ± 0.00071,1.1 ± 0.031
DSG2 (UniProt Q14126),1.01 ± 0.025,1.05 ± 0.04,1.03 ± 0.012,1.01 ± 0.032,0.985 ± 0.031,0.9825 ± 0.0032
LASP1 (UniProt Q14847),1.033 ± 0.0059,1.05 ± 0.078,1.01 ± 0.03,1.06 ± 0.035,1.05 ± 0.058,1.05 ± 0.057
TTLL12 (UniProt Q14166),1.026 ± 0.0028,0.927 ± 0.14,1.01 ± 0.04,0.964 ± 0.018,1.02 ± 0.027,0.944 ± 0.034
KIF14 (UniProt Q15058),1.02 ± 0.017,1 ± 0.034,1.02 ± 0.06,0.956 ± 0.027,0.94 ± 0.01,0.975 ± 0.017
UniProt Q12802 and related entries,1.02 ± 0.015,1.04 ± 0.072,1.04 ± 0.02,0.992 ± 0.039,0.976 ± 0.046,1.03 ± 0.024
UniProt Q08J23 and related entries,1.01 ± 0.011,0.999 ± 0.05,1.08 ± 0.027,1.13 ± 0.043,1.18 ± 0.022,1.17 ± 0.043
SCRN1 (UniProt Q12765),1 ± 0.02,0.985 ± 0.036,0.973 ± 0.035,0.9537 ± 0.0075,0.942 ± 0.012,0.951 ± 0.049
UniProt Q13422 and related entries,0.984 ± 0.014,0.992 ± 0.022,0.954 ± 0.019,0.989 ± 0.027,0.989 ± 0.026,1.03 ± 0.024
CUL1 (UniProt Q13616),0.994 ± 0.021,0.952 ± 0.061,0.962 ± 0.026,0.955 ± 0.034,0.96 ± 0.042,0.941 ± 0.046
TBL3 (UniProt Q12788),1.07 ± 0.02,1.15 ± 0.05,1.21 ± 0.023,1.35 ± 0.027,1.46 ± 0.024,1.53 ± 0.075
UniProt Q13618 and related entries,0.98 ± 0.022,0.91 ± 0.07,0.965 ± 0.01,0.958 ± 0.025,0.985 ± 0.018,0.934 ± 0.019
UniProt Q14257 and related entries,1.02 ± 0.015,1.03 ± 0.032,0.921 ± 0.011,0.861 ± 0.022,0.838 ± 0.034,0.807 ± 0.049
UniProt Q14934 and related entries,1.01 ± 0.019,1.03 ± 0.059,1.02 ± 0.011,1.01 ± 0.049,1 ± 0.018,1.02 ± 0.032
UniProt Q15042,1.01 ± 0.013,1 ± 0.041,0.996 ± 0.02,0.94 ± 0.022,0.94 ± 0.0096,0.955 ± 0.014

# Single records, as listed above. Values in the order: NP40-soluble protein abundance (concentration: 1mM)	NP40-soluble protein abundance (concentration: 2mM)	NP40-soluble protein abundance (concentration: 4mM)	NP40-soluble protein abundance (concentration: 6mM)	NP40-soluble protein abundance (concentration: 8mM)	NP40-soluble protein abundance (concentration: 10mM)
# WDR43 (UniProt Q15061) in the list: 1 ± 0.011	1.016 ± 0.0073	1.051 ± 0.0072	1.05 ± 0.0082	1.0448 ± 0.00071	1.1 ± 0.031
# UniProt Q13618 and related entries in the list: 0.98 ± 0.022	0.91 ± 0.07	0.965 ± 0.01	0.958 ± 0.025	0.985 ± 0.018	0.934 ± 0.019
